Results taken from publication PMC12040169 (PLOS Biology, 2025).
The list shows a part of the results.

System: T1, CTL2-GFP (C. trachomatis L2/434/Bu, GFP-expressing)
T1 construct: L2/434/Bu, GFP-expressing
Parameters: species or system HeLa; Intracellular C. trachomatis growth in HeLa cells, bulk GFP fluorescence relative to DMSO
Conditions: bulk GFP, single well; 28.5 h, 10 µM; inhibitor

In order of falling “% of control remaining” value:
1. C=CCn1c(NCc2ccccc2NS(=O)(=O)c2ccc(C)cc2)nc2ccccc21 [CBK266393]  176.687%
2. CCc1nc2ccc(C(=O)N(C)CCN(C)C)cn2c1N(C)Cc1nccs1 [CBK145474]  168.754%
3. Nc1ccccc1C(=O)NCc1ccncc1 [CBK057024]  163.885%
4. Cc1ccc(C)c(-n2nnnc2SC(C)C(=O)N2CCCC2)c1 (stereo not drawn) [CBK295204]  150.761%
5. Cc1nc2c(c(=O)[nH]1)CN(Cc1ccccc1F)CC2 [CBK283948]  146.649%
6. COc1ccc([N+](=O)[O-])c(Sc2cccs2)n1 [CBK002625]  144.799%
7. COc1ccc(-c2nnc3ccc(SCc4ccccn4)nn23)cc1OC [CBK287528]  144.733%
8. Cc1cccnc1C(c1ccc(F)cc1)N(C)C(=O)C1CCN(C(=O)OCc2ccccc2)CC1 (stereo not drawn) [CBK060095]  143.508%
9. Cc1noc([C@@H]2C[C@H](NS(=O)(=O)c3ccc(C#N)cc3)CN2C)n1 [CBK288874]  139.968%
10. COc1ccc([C@@]23CC[C@@H](NC(=O)c4ccc(F)c(F)c4)C[C@@H]2CN(C)C3)cc1OC [CBK083504T]  139.449%
11. NS(=O)(=O)c1ccc(CNC(=O)c2cc(-c3cccnc3)nc3ccc(Cl)cc23)cc1 [CBK267727]  138.606%
12. CCN(CC)C(=O)CN1CCC(Oc2nccnc2OC2CCCCC2)CC1 [CBK082866T]  137.76%
13. O=C(c1nc2ncccn2n1)N1CCc2ccccc2C1 [CBK288079]  137.424%
14. CCNC(=O)Nc1ccc(-c2ccc(SC)cc2)c2ccccc12 [CBK083723]  136.336%
15. COc1ccc(CCCC(=O)n2c(=O)n(CCc3c[nH]c4ccccc34)c3ccccc32)cc1 [CBK106514]  136.235%
16. Cc1nn(C)cc1CN(Cc1ccc(F)cc1)CC1CCCO1 (stereo not drawn) [CBK282472]  135.256%
17. CC1CN(C(=O)c2ccccc2)CC(C)N1CCCCc1ccc(F)cc1 (stereo not drawn) [CBK025019C]  132.064%
18. O=C1N=C(Nc2cccc(C(=O)O)c2)S/C1=C/c1cccc(O)c1 [CBK264984]  129.639%
19. Cc1ccc(-c2nnc([C@H]3CCN(C(=O)NCc4ccccc4)C3)o2)cc1 [CBK289411]  126.232%
20. CCc1noc(C)c1C(=O)NCCN(C)C [CBK268118]  123.163%
21. O=C(N[C@H]1CCN2C(=O)c3cc(-c4ccsc4)ccc3NC(=O)[C@H]12)c1cccc(F)c1 [CBK289339]  122.783%
22. CC(=O)Nc1ccc(S(=O)(=O)Nc2cccc(-c3cn4cccnc4n3)c2)cc1 [CBK269125]  122.447%
23. CCCc1oc(C(=O)O)cc1CN(CC)CC [CBK267943C]  122.347%
24. COCOc1ccc(-c2nccnc2OC2CCCCC2)cc1 [CBK106917]  122.253%
25. O=C(CCSc1ccc(Cl)cc1)NCCc1ccccc1 [CBK263800]  122.206%
26. COc1ccc([C@@]23CC[C@@H](NC(=O)c4ccc(-c5csnn5)cc4)C[C@@H]2N(C)CC3)cc1OC [CBK074256T]  121.979%
27. COc1ccc([C@@]23CC[C@@H](NC(=O)Nc4c(F)ccc(F)c4Cl)C[C@@H]2N(C)CC3)cc1OC [CBK073769T]  121.019%
28. COc1cc(OC)c(NC(=O)C(C)Oc2cccc(C)c2)cc1Cl (stereo not drawn) [CBK268646]  119.426%
29. CN1C[C@@H](NS(C)(=O)=O)C[C@H]1c1nc(-c2ccc3ccccc3c2)no1 [CBK288859]  119.137%
30. CN(C)Cc1ncccc1OCCO [CBK001411C]  118.169%
31. O=C1CC(Cl)Sc2sc3ccccc3c21 (stereo not drawn) [CBK006551]  117.107%
32. c1ccc(-c2cnc(C3CCCCC3)o2)cc1 [CBK008192]  116.737%
33. O=C1CCCCCN1CP(=O)(O)CCc1ccccc1 [CBK262313]  115.61%
34. COc1ccc(-c2cc(=O)[nH]c(SCC(=O)Nc3ccc(C)cc3)n2)cc1 [CBK091867]  113.509%
35. Cc1ccc(COC(CN2CCCCCC2)CN2CCCCCC2)cc1 [CBK278236C]  112.952%
36. Cc1cc(C)c2nc(-c3ccccn3)cc(C(=O)Nc3ccc(S(=O)(=O)Nc4cc(C)on4)cc3)c2c1 [CBK267779]  111.945%
37. CCC1CCCCN1CC(=O)N1CCCC1c1nc2ccccc2[nH]1 (stereo not drawn) [CBK282695]  109.129%
38. O=C(O)COCC(=O)NC12CC3CC(CC(C3)C1)C2 [CBK287065]  108.963%
39. OC(c1cccs1)C1CCN(Cc2ccc(-n3cncn3)cc2)CC1 (stereo not drawn) [CBK306523]  108.794%
40. CSc1nnc(-c2ccccc2[N+](=O)[O-])n1CC(C)C [CBK074959]  108.009%
41. C[C@H](NC(=O)Cc1ccc(-c2ccccc2)cc1)c1nc2ccccc2[nH]1 [CBK296998]  107.845%
42. CN(C)CCCn1cnc2c1c(=O)[nH]c(=O)n2C [CBK287913]  107.682%
43. CC1CCC(C(N)=O)CN1c1cc(Br)ccn1 (stereo not drawn) [CBK304856]  107.381%
44. Cc1cnc2[nH]c(C3CCCN(C(=O)c4cccnc4)C3)cc2c1 (stereo not drawn) [CBK285168]  106.681%
45. CCC(CC)(CC(=O)Nc1ccc2nc(C)sc2c1)C(=O)O [CBK297882]  106.439%
46. O=C(Nc1cc(Br)ccc1O)c1cnn2c(C(F)(F)F)cc(-c3cccs3)nc12 [CBK268190]  106.388%
47. CCc1ocnc1C(=O)NC1CCCN(Cc2ccccc2F)C1 (stereo not drawn) [CBK306924]  106.005%
48. O=C(NCCn1nc(-c2ccco2)ccc1=O)C1CCCCC1 [CBK283743]  105.747%
49. Clc1ccc(OCCOc2nccnc2N2CCNCC2)cn1 [CBK014049G]  104.812%
50. O=C1c2ccccc2S(=O)(=O)N1CC(O)Cn1c2ccc(Cl)cc2c2cc(Cl)ccc21 (stereo not drawn) [CBK262327]  103.222%
51. O=C(CCc1ccc(F)cc1)N1CCC(CC(=O)N2CCN(c3ccccc3)CC2)CC1 [CBK286245]  102.805%
52. O=c1oc2ccccc2c(NCCCN2CCOCC2)c1[N+](=O)[O-] [CBK261471]  101.228%
53. COc1cccc(NC(=O)NCCc2ccncc2)c1 [CBK270022]  100.687%
54. CCN1CCCC1CNC(=O)c1ccc(C)nc1NCCCn1ccnc1 (stereo not drawn) [CBK076382]  100%
55. CC(C)(C)c1ccc(-c2nnc(SCC(=O)c3ccc(F)cc3)o2)cc1 [CBK067988]  100%
56. Nc1ccc(S(=O)(=O)c2ccc(-n3c(=O)c4cc5c(=O)n(-c6ccc(S(=O)(=O)c7ccc(N)cc7)cc6)c(=O)c5cc4c3=O)cc2)cc1 [CBK261490]  100%
57. COc1cc(CNC2CCCCC2)ccc1OCC(N)=O [CBK263866]  100%
58. O=C(Cc1cccnc1)N1CCC(O)(c2cccc(F)c2)CC1 [CBK283537]  99.7828%
59. O=[N+]([O-])c1ccccc1OCCCn1c2ccccc2c2ccccc21 [CBK264799]  96.7015%
60. COCc1nc(C(=O)Nc2ccc(NC(C)=O)cc2C(F)(F)F)cs1 [CBK306298]  96.3531%
61. CNC(=S)Nc1ncn(Cc2cccc(F)c2)n1 [CBK288368]  95.2319%
62. Cc1cccc(-c2noc([C@@H]3Cc4[nH]cnc4CN3C(=O)NC(C)C)n2)c1 [CBK288962]  95.0939%
63. COc1cccc2c3c([nH]c12)C1(CCN(CCc2scnc2C)CC1)NCC3 [CBK040058]  94.3012%
64. Cc1ccccc1Nc1nc(CN2CCC3(CCCOC3)C2)cs1 (stereo not drawn) [CBK304255]  92.2978%
65. Cc1ccc(C(=O)N2CCC(c3nn(C)c4ncccc34)CC2)s1 [CBK284988]  91.6227%
66. O=C(Nc1ccc(F)cc1)c1cccc(NS(=O)(=O)c2cc(Cl)sc2Cl)c1 [CBK038980]  89.332%
67. CCOC(=O)c1ccccc1NS(=O)(=O)Cc1ccccc1[N+](=O)[O-] [CBK050594]  88.9703%
68. CSCCN1CCCC2(CCN(C(=O)c3ccoc3)C2)C1 (stereo not drawn) [CBK132835]  88.4929%
69. CC(=C\C(=O)O)/C(=C/c1ccncc1)C(=O)O [CBK278265N]  87.1921%
70. Cc1cccc(CN(CCCN)C(=O)Nc2ccc(C(C)(C)C)cc2)n1 [CBK033365C]  86.7132%
71. CCNc1cc2ccccc2c(-c2cc(C(C)C)ccc2OC)n1 [CBK073777]  84.5732%
72. COc1cc(-c2cnc(N)c(N3CCC[C@@H]3CO)n2)cc(OC)c1OC [CBK063478]  74.1177%
73. Cn1cc(C(=O)N2CCCC(c3cc4ccccc4cn3)C2)cn1 (stereo not drawn) [CBK285155]  73.698%
74. O=C(NCc1ccccc1)c1ccc(NCc2ccccc2)c([N+](=O)[O-])c1 [CBK074547]  69.2906%
75. COc1ccc2[nH]cc(CCNC(=O)/C=C/c3ccc(C(C)C)cc3)c2c1 [CBK149639]  68.7452%
76. Cc1c(C(=O)Nc2ccncc2)nnn1-c1cccc(C(F)(F)F)c1 [CBK107390]  68.0774%
77. CCCCSc1nnc2c(n1)OC(/C=C/c1ccc([N+](=O)[O-])o1)Nc1ccccc1-2 (stereo not drawn) [CBK262565]  56.4429%
78. CCCc1cc(C(=O)N2CCN(c3nccc(OC)n3)CC2)[nH]n1 [CBK304898]  48.3913%
